The results in this text go back to PubChem BioAssay AID1508600 (Functional Genomics Laboratory (NCATS/FGL), 2020).

In all, about 53,000 sequences went through this assay and about 3,700 (7%) were called active.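 The calls were made as follows: active = gene knockdowns whose robust z-score for IL-1 alpha signal is at least 2 or at most -2, so actives lie on both sides; inactive = the rest.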 This is one part of the list.

The nature of this assay: Components of the Cytosolic LPS Sensing Pathway: Gene Identification via Genome-wide siRNA Screen.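 Also: robust z of the log signal after scaling to non-targeting control siRNA wells of the plate.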 The conditions noted are these: RAW264.7 macrophages, IL-1a HTRF, actives lie on both sides, screened at 100 nM (by protocol), cells primed 5 h with Pam3CSK4 first. In outline: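 Knockdown: 100 nM siRNA, 48h, RAW264.7. Stimulation: Pam3CSK4 5 h, then LipidA via TransIT-TKO 24 h. Output: supernatant IL-1a HTRF, negative-control-normalized, log robust z-score; viability by CellTiter-Glo.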
For orientation: Time-resolved FRET reads energy transfer from a long-lived donor to a nearby acceptor.
For the sequence GCUAUGUGACCAGAACGAGTT against Tsc2, the z-score was inactive: 0.194.

On to GGAAGAAAUAGAGUUUUACTT against Ephx2, for which the z-score is active: 3.42.

Consider GGCAAACUGUCUCUUCAGATT against Pim1, for which the z-score was inactive: -0.131.

For GGAGUCAGUCCAGAUUCUGTT against Tgif1, the z-score is inactive: -1.09.

On to GCGUAUCAAGUUCUCUAGGTT against Mical1, for which the z-score was inactive: 1.84.

GGUGGGACUUGAUUUUUCUTT against Lrrfip1: the z-score is inactive: 0.815.

Regarding GGGCUAUGUUGUCUCAAAATT against Gsdma2, the z-score is inactive: 0.861.

For GGUGAACCACGAGAAGAGUTT against Hk1, the z-score is inactive: -0.0371.

Regarding GGAACACUUCAUCAGUCAGTT against Chrnb3, the z-score is inactive: -1.06.

Take GGUCCAGAGAAGGCAAGCUTT against Elf3: the z-score was active: 5.87.

Take GGCUGAAGCUCGACUGAAGTT against Abcf3: the z-score was active: 2.35.

With CCUUCGAGUACACCUUGCUTT against Adamtsl2, the z-score is inactive: -1.21.

Turning to GGAAGAAAAGUAUUACAGCTT against Itgb3bp, the z-score was inactive: -0.34.

Turning to GGAGAGGCUUUUCAUUGAUTT against Dnaaf1, the z-score is inactive: 0.819.

Consider GCACUAAACGUGAAGGAGUTT against Npl, for which the z-score was inactive: -0.334.

In the case of GCUGUUACCUCCAAGAGUCTT against Cenpx, the z-score is inactive: -1.89.

Take GGAUUAUUAGCACUGCUAGTT against Oaz2: the z-score is inactive: 0.861.

GGAUGAUUCAGAUGAAGAUTT against Zcchc18: the z-score is inactive: -0.662.

As to GGAUGUUCUUGCUCAUGUGTT against Fam149b, the z-score is inactive: 0.605.

Regarding GGCUCCUGGUUCUACAUCCTT against Itpr2, the z-score was active: -2.54.

Consider GGAGAACACUGAGGAAAAGTT against Olfr917, for which the z-score is inactive: 0.38.

Take “GGGAUUGGCGGGUUUUGAUTT against 9330175E14Rik”: the z-score was inactive: -1.11.

In the case of GGCACAGAGAUUGAAGAUCTT against Sry, the z-score was active: 2.04.

For the sequence GGCUGAAAAACCUUCAGCATT against Sparcl1, the z-score was inactive: 0.507.

As for GGACUGGUUCAUCCUUGUGTT against G6pc, the z-score was inactive: 0.922.

Regarding GGCUCUAACUAUUAUGUGCTT against Psmc4, the z-score is active: -2.9.

As for GGAAAAGUCCCGUAUGGAGTT against Gcc1, the z-score was active: -3.14.

For the sequence GCGAUGGAACUGUACGAGATT against Mdp1, the z-score was inactive: 0.244.

As for GGAGAAGACGGCUAAGCUCTT against Gramd1a, the z-score is inactive: 0.0128.

For the sequence GCUUGAGCUCAUGGUCACUTT against Olfr1309, the z-score is inactive: 0.572.

Consider GGAGAUCGACAGAGAAGCATT against Pcdh20, for which the z-score is inactive: -1.13.

In the case of “GCGUGCCCAACAUUAUCAUTT against 1190005I06Rik”, the z-score is inactive: -0.314.

Consider GGCUGUUUCCAAAAAGAAGTT against H1f5, for which the z-score was inactive: -1.14.

“CAUGGACUCUAAGUAUAAUTT against Olfr1372-ps1”: the z-score was inactive: -0.38.

In the case of CCUGCAGCUGUAAAACCUGTT against Mt4, the z-score was inactive: 0.902.

For the sequence GGAUUUGAGCGAUAUGAGCTT against Tex12, the z-score was active: -3.29.

Take GGUACUCGGAUUUGAUUAATT against Myo6: the z-score was inactive: 0.403.

Take GGGAAUUCUCCUGUUUGCUTT against Plp2: the z-score is active: -2.22.

Consider GGCUCACAAUAUUGUAUACTT against Ndufa5, for which the z-score is inactive: -0.436.

As to GUGAACCACACUGUCUGAGTT against Tmem37, the z-score was inactive: 1.26.

Consider GGACCUGCUUGAACAUUACTT against Sh2d2a, for which the z-score is inactive: -1.21.

For GGAGCUUCUUUUUUGUUUATT against Myog, the z-score was inactive: 0.492.

On to CAGCUUCUCAUAAAUCUUCTT against Olfr1385, for which the z-score is inactive: -0.878.

As for CCCUAACUUAAUAAAACCUTT against Triobp, the z-score is active: -2.41.

As to GCUUAUCACUUCAGAUAUCTT against Bmp2k, the z-score was inactive: 1.49.

In the case of GCUUCGACAUUGUUAGUUATT against Ammecr1, the z-score is inactive: 0.322.

As for GCAGAUAUUCUCUGUGCAGTT against Ccnf, the z-score is inactive: -0.607.

Consider GGAAAAGUGGAAUCAGAUUTT against Uty, for which the z-score was inactive: -0.672.

Regarding GGCCAUCAUUUUCACAACUTT against Gk5, the z-score is inactive: -0.114.

Turning to GGUUUUUCUAAGAGAACGGTT against Rnft1, the z-score was inactive: -0.558.

For GGUGGAUUCUAUUAAAUGCTT against Gm14461, the z-score is inactive: 0.462.

On to CGCGUACAGAAGCAGUUAGTT against Cep170b, for which the z-score is inactive: 1.84.

For GGAAGAUGAUUAUGAAGAUTT against Apc, the z-score was inactive: -0.143.

On to CGAAAUGGGAUUAAAACAATT against Fam181b, for which the z-score was inactive: 0.19.

Turning to GGUGACUCAUAUUCGGAUCTT against Ptpn6, the z-score is inactive: 1.44.

For the sequence GGAGAAAUGAAGGUAUACATT against Cert1, the z-score was inactive: -1.12.

In the case of GGACAGUGUUUUUUGUAGUTT against Pdcd4, the z-score is inactive: -0.809.

For GGUUUGAGAAAUGACUUAATT against Naa15, the z-score was inactive: 0.328.

As to GCCAUUAAGAUCGCUUACUTT against Selenop, the z-score was inactive: -0.432.

Consider GGACUAGUGUGAAAAAGGATT against Nsd1, for which the z-score was active: -2.87.

With GCUCUUGUAUGUUCUGCUGTT against Tmem86b, the z-score is inactive: -0.311.

For the sequence CGCAAUGCUGGAUUAUUUATT against Ceacam2, the z-score was inactive: 0.628.

For GGAGAAUCUGGUCUGGGUATT against Septin4, the z-score was inactive: 1.04.

Consider GCUACAUACCCAAAUACAUTT against Trpc4ap, for which the z-score is active: 2.1.

With CGGGAUAUCAUUCUCCAUATT against Lnpep, the z-score is inactive: 0.62.

Turning to GGAAUGAAAUCUCUGCAUGTT against Zfand5, the z-score was inactive: 0.574.

On to GUGUGCUGUCCUCAGUAGATT against Olfr1086, for which the z-score was inactive: -0.725.

Regarding GGCCUUUAAUUUCUUACACTT against Akt1s1, the z-score is inactive: -0.6.

In the case of GGAAUAUUGGUUGUGAUGATT against Ralb, the z-score was inactive: -0.197.

For GGCAGUGUAUCACAACGUGTT against Commd10, the z-score is inactive: 0.591.

As for GGGUCUCUUGUGGUACAUCTT against Cln3, the z-score is active: 3.41.

Turning to CCACUAUGUUCUCUGGAUATT against Llgl1, the z-score was inactive: -0.218.

As to GGAGACCUAAAAUGUCUUUTT against Klrb1b, the z-score is inactive: 0.6.

With GCGUGGAGUCUUCAGUCAUTT against Vhl, the z-score was inactive: -0.101.

Regarding GGAGAUUGGAAAAACCAAATT against Zfp74, the z-score was inactive: 0.495.

As for GGAGACAGAAAAGAAGUUGTT against Gpr108, the z-score is inactive: -0.119.

On to GGAGCAGGAAUCAUUGACGTT against Chil3, for which the z-score was inactive: 0.922.

On to CCGAGUCUCUUAGAAUAAUTT against Tfcp2l1, for which the z-score was inactive: 1.27.

Consider GGCGAAUCUUUCCAACGCGTT against Marco, for which the z-score is inactive: 0.443.

For the sequence GGCAGGAUCUUUACAUCUCTT against Krtap31-1, the z-score was inactive: 0.796.

With AGUACACUUGCUCCUUCUGTT against Rpl37a, the z-score was inactive: -0.0364.

As to GGUGACGAAACUCCUAAAATT against Hars, the z-score was inactive: 0.0366.

Consider GCUUUACGUCAGGAGAUAATT against Pak3, for which the z-score is inactive: 0.0681.

Turning to GGCGGAACAAGAUGACUCATT against Arnt2, the z-score is inactive: 0.819.

In the case of GGAAGUGUCUUAGCACCCATT against Zfp330, the z-score is inactive: 0.53.

On to “GGUGCCUGUAUAUCUCCAATT against Aadacl4fm1”, for which the z-score is inactive: 0.251.

With GGUCAUCGGACAUUAUUUATT against Slc4a10, the z-score was inactive: -0.903.

Take GGUACAAUCUUAUCUGUGGTT against Dsg1a: the z-score was inactive: -0.701.

GCCUCCUAUCCUGGGAAGATT against Prss3: the z-score was active: 2.54.

As for GGCCCUUUCUGUCACUUAGTT against Myl12b, the z-score was inactive: 0.269.

For the sequence “CCUGGUCAAUCGAUUCAUATT against 5330416C01Rik”, the z-score was inactive: -0.12.

Turning to GCCUCUCCUAUCCCAAUUATT against Enpp6, the z-score was inactive: -1.21.

On to GGUCCCUGAGGAUUUCAUCTT against Nprl2, for which the z-score is inactive: 1.31.

Take GGAAUCGCUGUUAUAGUUATT against Spast: the z-score was inactive: 0.26.

On to GCAGUAGUCUUGGAAUUAATT against Bhlhe41, for which the z-score was active: 2.15.

Turning to GGAAUGUGUAUUCCAAAAUTT against Gp2, the z-score is inactive: 0.309.

CCCAUCACUUUAACCAAAGTT against Dhrs7c: the z-score was inactive: -1.36.

For GGAAGAGGUUUUAUCAGAATT against Atpaf2, the z-score is inactive: -0.194.

Take GGACUAACCAGAAUUUUCATT against Kcnc2: the z-score was inactive: 0.595.

Consider GGAUGCAGAGAAGAAUCUGTT against Psmd6, for which the z-score is active: -2.65.

Turning to CGAUGGGUAGUGUUUUAACTT against Paqr7, the z-score is inactive: 1.11.

GGAUCUGAAGGAAUACUUUTT against Lmf1: the z-score is inactive: 1.69.

GGAAGAGGAGCAAAAGCCATT against Slc34a1: the z-score is inactive: -0.316.

In the case of GGGAGGAUGGUGGUAUAACTT against Angptl2, the z-score was inactive: -0.331.

Take CGUCAUUCACCCUAAGCCATT against Osr1: the z-score was inactive: 1.16.

With GGCAAGAAAUACAAAGGAUTT against Pi4kb, the z-score is inactive: 0.394.

For GGUUGUUAGAGAUUUGACCTT against Kctd12, the z-score was inactive: -0.208.
